Cell number after 72 h of treatment

Source: doi:10.1371/journal.pone.0140310, primary screening data, rounded.

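Human melanoma cell lines in 1,536-well plates were treated with two drugs together for 72 h, then fixed, stained and imaged. Each value is the count of nuclei relative to DMSO-treated wells, in %, so that 100 equals the control. Every drug was used at one fixed concentration, the lower of two screened (a fifth of the higher). These are primary screening values without error estimates.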 Only some of the drugs and lines screened are listed, without regard to their results. An entry leaves out what has no value listed here. A dash means that no value is listed here.

All values are for the listed drug together with darinaparsin (400 nM): C[As](C)SC[C@H](NC(=O)CC[C@H](N)C(=O)O)C(=O)NCC(=O)O

Partner | A2058 | A101D | COLO 800 | LB2518-MEL | IST-MEL1 | G-361 | LOX IMVI | IPC-298
O=c1cc(-c2cccc3c2Sc2ccccc2S3)oc(N2CCOCC2)c1 at 1000 nM | 97.8 | 91.6 | 111 | 114 | 103 | 95.7 | 96.6 | 106
CS(=O)(=O)CCNCc1ccc(-c2ccc3ncnc(Nc4ccc(OCc5cccc(F)c5)c(Cl)c4)c3c2)o1 at 800 nM | 91.2 | 98.5 | 106 | 101 | 88.7 | 78.1 | 90.6 | 93.4
COc1cc(N2CCC(N3CCN(C)CC3)CC2)ccc1Nc1ncc(Cl)c(Nc2ccccc2S(=O)(=O)C(C)C)n1 at 80 nM | 86.2 | 101 | 87.4 | - | 90.9 | 85.5 | 97.5 | 96.9
CCCCCCCCc1ccc(CCC(N)(CO)CO)cc1 at 2000 nM | 92.9 | 89.8 | 106 | 110 | 101 | 97.7 | 62.2 | 88.5
CC(=O)O[C@@]12CO[C@@H]1C[C@H](O)[C@@]1(C)C(=O)[C@H](O)C3=C(C)[C@@H](OC(=O)[C@H](O)[C@@H](NC(=O)OC(C)(C)C)c4ccccc4)C[C@@](O)([C@@H](OC(=O)c4ccccc4)[C@H]21)C3(C)C at 0.1 nM | 13.4 | 60.0 | 30.8 | - | 44.1 | 14.7 | 63.3 | 64.4
Nc1nc(F)nc2c1ncn2[C@@H]1O[C@H](CO)[C@@H](O)[C@@H]1O at 200 nM | 93.9 | 90.6 | 137 | 98.2 | 93.4 | 84.1 | 92.6 | 87.3
COc1ccc(COc2ccc(Cc3cnc(N)nc3N)cc2OC)cc1 at 1000 nM | 87.3 | 120 | 108 | 104 | 100 | 101 | 109 | 96.7
CC(C)CCN1c2nc(Nc3cc(F)c(O)c(F)c3)ncc2N(C)C(=O)C1C (stereo not shown) at 200 nM | 95.1 | 95.1 | 122 | 88.2 | 94.8 | 96.3 | 94.5 | 98.8
C/C(O)=C(\C#N)C(=O)Nc1cc(Br)ccc1Br at 2000 nM | 110 | 103 | 69.2 | - | 89.0 | 92.8 | 94.0 | 95.5
Oc1cc(-c2nc(-c3ccccc3)[nH]c2-c2ccncc2)ccc1Cl at 200 nM | 110 | 96.5 | 130 | - | 101 | 98.7 | 107 | 83.4
Cn1c(Nc2ccc(C(F)(F)F)cc2)nc2cc(Oc3ccnc(-c4ncc(C(F)(F)F)[nH]4)c3)ccc21 at 80 nM | 68.7 | 54.3 | 88.1 | 51.6 | 95.1 | 75.3 | 81.8 | 64.4
Cc1nc(Nc2ncc(C(=O)Nc3c(C)cccc3Cl)s2)cc(N2CCN(CCO)CC2)n1 at 4 nM | 77.8 | 91.9 | 75.2 | 88.9 | 78.3 | 79.1 | 51.6 | 94.3
Cc1cc([N+](=O)[O-])ccc1NS(=O)(=O)c1cc(Cl)ccc1Cl at 1000 nM | 87.1 | 91.1 | 96.0 | 104 | 90.7 | 91.8 | 92.8 | 95.8
Cn1nnc2c(C(N)=O)ncn2c1=O at 2000 nM | 84.3 | 101 | 106 | 90.9 | 97.3 | 96.5 | 119 | 98.9
COc1ccc(C2=N[C@@H](c3ccc(Cl)cc3)[C@@H](c3ccc(Cl)cc3)N2C(=O)N2CCNC(=O)C2)c(OC(C)C)c1 at 100 nM | 103 | 103 | 129 | 87.4 | 111 | 105 | 128 | 95.6
C=C(c1ccc(C(=O)O)cc1)c1cc2c(cc1C)C(C)(C)CCC2(C)C at 2000 nM | 98.2 | 103 | 108 | 109 | 99.1 | 102 | 106 | 96.6
Oc1nc(-c2ccc(C(F)(F)F)cc2)nc2c1CSCC2 at 2000 nM | 82.9 | 92.9 | 123 | 106 | 101 | 96.2 | 56.5 | 98.5
CCc1ccc(CCOc2ccc(CC3SC(=O)NC3=O)cc2)nc1 (stereo not shown) at 2000 nM | 107 | 103 | 142 | 95.1 | 98.3 | 92.6 | 91.0 | 104
CCCCCCCCCCCCCCCCCCOP(=O)([O-])OC1CC[N+](C)(C)CC1 at 400 nM | 85.1 | 101 | 105 | 121 | 105 | 87.9 | 113 | 106
COCC[n+]1c2c(n(Cc3cnccn3)c1C)C(=O)c1ccccc1C2=O at 0.4 nM | 96.1 | 88.4 | 86.5 | 101 | 96.7 | 95.0 | 97.9 | 100
COc1cc2ncnc(Nc3ccc(Oc4ccccc4)cc3)c2cc1OC at 2000 nM | 97.7 | 106 | 135 | 126 | 102 | 98.3 | 260 | 97.5
Cc1ccc(Nc2nccc(N(C)c3ccc4c(C)n(C)nc4c3)n2)cc1S(N)(=O)=O at 400 nM | 106 | 108 | 97.9 | 91.1 | 107 | 87.0 | 107 | 77.8
CCN(CC)CCCCNc1ncc2cc(-c3cc(OC)cc(OC)c3)c(NC(=O)NC(C)(C)C)nc2n1 at 100 nM | 96.2 | 104 | 78.5 | 111 | 108 | 96.2 | 166 | 109
Cc1cc(Nc2cc(N3CCN(C)CC3)nc(/C=C/c3ccccc3)n2)n[nH]1 at 40 nM | 85.4 | 88.3 | 89.7 | 84.7 | 101 | 92.3 | 86.6 | 92.0
C[C@@H](N)c1ccc(C(=O)Nc2ccnc3[nH]ccc23)cc1 at 400 nM | 77.8 | 89.7 | 99.0 | 156 | 91.5 | 85.5 | 107 | 108
COc1ccc(-c2ccc3c(N4CCOCC4)nc(N4C[C@@H](C)O[C@@H](C)C4)nc3n2)cc1CO at 20 nM | 103 | 109 | 106 | - | 108 | 97.2 | 104 | 88.9
CCCCCCCCCCCC1=C(O)C(=O)C=C(O)C1=O at 1200 nM | 112 | 106 | 115 | 97.1 | 110 | 87.4 | 125 | 100
O=C(O)c1ccc(-c2c[nH]c3ncc(-c4ccccc4)cc23)cc1C1CCCC1 at 160 nM | 99.9 | 96.4 | 96.0 | 94.1 | 94.9 | 92.5 | 91.9 | 99.8
Cn1c(=O)n(-c2ccc(C(C)(C)C#N)cc2)c2c3cc(-c4cnc5ccccc5c4)ccc3ncc21 at 4 nM | 84.1 | 87.7 | 97.1 | 104 | 97.1 | 91.9 | 149 | 96.0
O=C(/C=C/c1cccnc1)NCCCCC1CCN(C(=O)c2ccccc2)CC1 at 10 nM | 103 | 94.4 | 29.9 | 79.6 | 65.7 | 5.5 | 98.4 | 32.6
C[C@]12O[C@H](C[C@]1(O)CO)n1c3ccccc3c3c4c(c5c6ccccc6n2c5c31)CNC4=O at 4 nM | 108 | 105 | 84.3 | - | 97.8 | 104 | 117 | 101

The last 3 entries again:

- Cn1c(=O)n(-c2ccc(C(C)(C)C#N)cc2)c2c3cc(-c4cnc5ccccc5c4)ccc3ncc21 at 4 nM : A2058: 84.1; A101D: 87.7; COLO 800: 97.1; LB2518-MEL: 104; IST-MEL1: 97.1; G-361: 91.9; LOX IMVI: 149; IPC-298: 96.0
- O=C(/C=C/c1cccnc1)NCCCCC1CCN(C(=O)c2ccccc2)CC1 at 10 nM : A2058: 103; A101D: 94.4; COLO 800: 29.9; LB2518-MEL: 79.6; IST-MEL1: 65.7; G-361: 5.5; LOX IMVI: 98.4; IPC-298: 32.6
- C[C@]12O[C@H](C[C@]1(O)CO)n1c3ccccc3c3c4c(c5c6ccccc6n2c5c31)CNC4=O at 4 nM : A2058: 108; A101D: 105; COLO 800: 84.3; IST-MEL1: 97.8; G-361: 104; LOX IMVI: 117; IPC-298: 101